Values of other authors, collected in patent US20100322961A1, “Intranasal Drug Delivery System” (priority 2007, published 2010).
Some of these results come from one statement about several compounds together. Some ranges recur; such a range may be that of the whole group of compounds.

Conditions: pure substance; background statement

SMILES | pungency (Scoville heat units)
COc1cc(CNC(=O)CCCCCCCC(C)C)ccc1O [homodihydrocapsaicin] | 8,600,000-9,100,000 Scoville units
COc1cc(CNC(=O)CCCCCC(C)C)ccc1O [Nordihydrocapsaicin, nordihydrocapsaicin] | 8,600,000-9,100,000 Scoville units
COc1cc(CNC(=O)CCCCC/C=C/C(C)C)ccc1O [homocapsaicin] | 8,600,000-9,100,000 Scoville units
